Reference: article PMC8770743

T1: Nuclear factor erythroid-2-related factor-2 (human (endogenous in PDLSCs)) (UniProt Q16236)
T1 sequence: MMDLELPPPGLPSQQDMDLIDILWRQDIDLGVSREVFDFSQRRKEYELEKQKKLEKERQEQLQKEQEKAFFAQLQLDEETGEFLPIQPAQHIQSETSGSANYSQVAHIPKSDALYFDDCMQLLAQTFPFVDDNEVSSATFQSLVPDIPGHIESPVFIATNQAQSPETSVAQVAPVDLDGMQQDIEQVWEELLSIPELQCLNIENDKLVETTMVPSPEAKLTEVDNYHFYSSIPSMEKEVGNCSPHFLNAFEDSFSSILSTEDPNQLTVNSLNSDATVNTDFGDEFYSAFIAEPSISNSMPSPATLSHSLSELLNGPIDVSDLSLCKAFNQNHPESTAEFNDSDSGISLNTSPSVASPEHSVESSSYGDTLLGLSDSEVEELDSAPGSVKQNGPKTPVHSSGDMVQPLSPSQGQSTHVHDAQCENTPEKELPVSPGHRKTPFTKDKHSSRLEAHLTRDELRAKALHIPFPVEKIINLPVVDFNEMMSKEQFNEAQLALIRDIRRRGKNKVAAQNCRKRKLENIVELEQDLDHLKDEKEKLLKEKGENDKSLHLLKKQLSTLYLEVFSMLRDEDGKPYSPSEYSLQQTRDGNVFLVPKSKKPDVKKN


What was measured:
[1] = biological target: T1, Nuclear factor erythroid-2-related factor-2 (human (endogenous in PDLSCs)); test: co-IP; endogenous proteins in NP-40 lysate of human PDLSCs (cyclic mechanical stress; with or without t-BHQ); primary antibody (2.5 ug) and Protein A/G Plus Agarose at 4°C overnight, washed three times with NP-40 lysis buffer, western blotting
[2] = biological target: protein kinase B (human (endogenous in PDLSCs)); test: as above

| binding [1] | binding [2] | Molecule |
| --- | --- | --- |
| binds |  | protein kinase B (human (endogenous in PDLSCs)) (enzyme) |
|  | binds | Nuclear factor erythroid-2-related factor-2 (protein, UniProt Q16236 1-605) MMDLELPPPGLPSQQDMDLIDILWRQDIDLGVSREVFDFSQRRKEYELEKQKKLEKERQEQLQKEQEKAFFAQLQLDEETGEFLPIQPAQHIQSETSGSANYSQVAHIPKSDALYFDDCMQLLAQTFPFVDDNEVSSATFQSLVPDIPGHIESPVFIATNQAQSPETSVAQVAPVDLDGMQQDIEQVWEELLSIPELQCLNIENDKLVETTMVPSPEAKLTEVDNYHFYSSIPSMEKEVGNCSPHFLNAFEDSFSSILSTEDPNQLTVNSLNSDATVNTDFGDEFYSAFIAEPSISNSMPSPATLSHSLSELLNGPIDVSDLSLCKAFNQNHPESTAEFNDSDSGISLNTSPSVASPEHSVESSSYGDTLLGLSDSEVEELDSAPGSVKQNGPKTPVHSSGDMVQPLSPSQGQSTHVHDAQCENTPEKELPVSPGHRKTPFTKDKHSSRLEAHLTRDELRAKALHIPFPVEKIINLPVVDFNEMMSKEQFNEAQLALIRDIRRRGKNKVAAQNCRKRKLENIVELEQDLDHLKDEKEKLLKEKGENDKSLHLLKKQLSTLYLEVFSMLRDEDGKPYSPSEYSLQQTRDGNVFLVPKSKKPDVKKN |

These are yes or no findings as the source states them, for the method shown. In cells and extracts the contact can be indirect. Binding can be weak; no strength is given.
